Data source: PubChem BioAssay AID504764 (Drosophila RNAi Screening Center, 2011)

Assay: 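Genome-wide screen for regulators of Notch-driven gene expression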 (primary screen)
Cell system: Drosophila Kc167 cells
Reagents: long dsRNA against Drosophila genes
Time to read-out: about 5 days (4 days dsRNA, then 24 h after transfection)
Challenge: transfection of constitutively active membrane-tethered Notch lacking the extracellular domain, read 24 h later
Measured: 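Light from a Notch-responsive E(spl)m3 luciferase reporter under active Notch, with control-promoter and no-Notch reporter wells to normalise; raw counts from paired wells a and b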
Direction: induced reporter light, run 1, well a and induced reporter light, run 1, well b: higher = more light from the Notch target reporter with active Notch; control promoter light, run 1, well a and control promoter light, run 1, well b: higher = more light from the viral control promoter (cell number, transfection, viability); uninduced reporter light, run 1, well a: higher = more light from the Notch target reporter without active Notch
Active means: 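Hit if the duplicate-averaged log2 ratio of induced to control-promoter light gives a plate-wise z beyond ±2, or induced to uninduced beyond ±1.8; weak-control or discordant-duplicate wells dropped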
Calls: active = modifier hit (raised or lowered Notch signal); inactive = not a hit
The screen tested about 22,000 reagents; this is a random part of those with a known target gene and a result. In the full data, 403 (1.9%) are marked active. 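Unnormalised raw counts per well; ratio z-scores behind the hit calls and whether each hit raises or lowers signal are not deposited.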 Unmarked entries are inactive. No sequences are given here. Not given: the amount of reagent.

With knock-down of unc-45 [DRSC15449], the record shows induced reporter light, run 1, well a = 1.06e5; induced reporter light, run 1, well b = 1.07e5; control promoter light, run 1, well a = 1.28e5; control promoter light, run 1, well b = 79555; uninduced reporter light, run 1, well a = 8545. With knock-down of CG5171 [DRSC02823], the record shows induced reporter light, run 1, well a = 2.02e5; induced reporter light, run 1, well b = 2.15e5; control promoter light, run 1, well a = 2.65e5; control promoter light, run 1, well b = 2.76e5; uninduced reporter light, run 1, well a = 18755. For Ir94h [DRSC15232], the entry reads induced reporter light, run 1, well a = 1.68e5; induced reporter light, run 1, well b = 1.40e5; control promoter light, run 1, well a = 2.17e5; control promoter light, run 1, well b = 2.11e5; uninduced reporter light, run 1, well a = 13505. CG17855 [DRSC02638] showed induced reporter light, run 1, well a = 1.27e5; induced reporter light, run 1, well b = 1.29e5; control promoter light, run 1, well a = 82290; control promoter light, run 1, well b = 1.03e5; uninduced reporter light, run 1, well a = 17675.

An excerpt of the results above, as a working copy:
CG5171 [DRSC02823] — induced reporter light, run 1, well a = 2.02e5; induced reporter light, run 1, well b = 2.15e5; control promoter light, run 1, well a = 2.65e5; control promoter light, run 1, well b = 2.76e5; uninduced reporter light, run 1, well a = 18755
Ir94h [DRSC15232] — induced reporter light, run 1, well a = 1.68e5; induced reporter light, run 1, well b = 1.40e5; control promoter light, run 1, well a = 2.17e5; control promoter light, run 1, well b = 2.11e5; uninduced reporter light, run 1, well a = 13505

More records:
CG6204 [DRSC15991] scored induced reporter light, run 1, well a = 2.05e5; induced reporter light, run 1, well b = 2.24e5; control promoter light, run 1, well a = 2.41e5; control promoter light, run 1, well b = 2.86e5; uninduced reporter light, run 1, well a = 14020. MKP-4 [DRSC19567] showed induced reporter light, run 1, well a = 1.48e5 (active); induced reporter light, run 1, well b = 1.41e5; control promoter light, run 1, well a = 1.36e5; control promoter light, run 1, well b = 1.22e5; uninduced reporter light, run 1, well a = 13045. With knock-down of CG10257 [DRSC05985], the screen gave induced reporter light, run 1, well a = 92935; induced reporter light, run 1, well b = 95650; control promoter light, run 1, well a = 1.23e5; control promoter light, run 1, well b = 1.27e5; uninduced reporter light, run 1, well a = 9245. Knock-down of CG12699 [DRSC06162] resulted in: induced reporter light, run 1, well a = 99100; induced reporter light, run 1, well b = 1.22e5; control promoter light, run 1, well a = 2.22e5; control promoter light, run 1, well b = 2.25e5; uninduced reporter light, run 1, well a = 10425. For CG10462 [DRSC02058], the entry reads induced reporter light, run 1, well a = 2.03e5; induced reporter light, run 1, well b = 2.74e5; control promoter light, run 1, well a = 2.29e5; control promoter light, run 1, well b = 2.22e5; uninduced reporter light, run 1, well a = 17345. After knock-down of CG15464 (retired record) [DRSC18047] the results were induced reporter light, run 1, well a = 1.28e5; induced reporter light, run 1, well b = 1.18e5; control promoter light, run 1, well a = 2.55e5; control promoter light, run 1, well b = 2.46e5; uninduced reporter light, run 1, well a = 9425.

Depletion of Cyp6t1 [DRSC20564] came out at: induced reporter light, run 1, well a = 82595; induced reporter light, run 1, well b = 1.14e5; control promoter light, run 1, well a = 1.01e5; control promoter light, run 1, well b = 1.24e5; uninduced reporter light, run 1, well a = 9370. After knock-down of CG12091 [DRSC08251], the screen gave induced reporter light, run 1, well a = 1.36e5; induced reporter light, run 1, well b = 1.35e5; control promoter light, run 1, well a = 1.67e5; control promoter light, run 1, well b = 1.62e5; uninduced reporter light, run 1, well a = 6065.
